# Several values for one entry are separate records, joined by “and”; a condition that tells them apart may be missing. Identical values can stand only once. This is one part of the list. For some assays here: The exact form of the protein is not confirmed.
# Protein sequences, listed by entry. Tags and fused reporters are not part of them.
# UniProt P42830, whole entry: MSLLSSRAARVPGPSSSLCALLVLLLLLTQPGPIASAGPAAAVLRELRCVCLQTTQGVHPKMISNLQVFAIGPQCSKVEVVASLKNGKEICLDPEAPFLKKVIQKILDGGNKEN
# Assays:
# Assay in all cases: protein microarray (ProtoArray v5.0), streptavidin-Alexa Fluor 647
# Conditions in all cases: 3'-biotin; 20 mM Tris (pH 7.5), 5 mM MgCl2, 100 mM KCl, 0.1% Tween-20, A/T-rich and random oligonucleotide blockers; temperature not stated; high values mean tight binding
# [1] = system: CTD small phosphatase-like protein (human)
# CTDSP1 (human) = system: CTDSP1 (human)
# CTNNA3 (human) = system: CTNNA3 (human)
# CTNNB1 (human) = system: CTNNB1 (human)
# CTSC (human) = system: CTSC (human)
# CTSE (human) = system: CTSE (human)
# CTXN1 (human) = system: CTXN1 (human)
# CXCL3 (human) = system: CXCL3 (human)
# CXCL5 = CXCL5 (UniProt P42830)
# CYB5B (human) = system: CYB5B (human)
# CYB5R3 (human) = system: CYB5R3 (human)
# CYB5R4 = biological target: T1, CYB5R4 (UniProt Q7L1T6)
# T1 sequence: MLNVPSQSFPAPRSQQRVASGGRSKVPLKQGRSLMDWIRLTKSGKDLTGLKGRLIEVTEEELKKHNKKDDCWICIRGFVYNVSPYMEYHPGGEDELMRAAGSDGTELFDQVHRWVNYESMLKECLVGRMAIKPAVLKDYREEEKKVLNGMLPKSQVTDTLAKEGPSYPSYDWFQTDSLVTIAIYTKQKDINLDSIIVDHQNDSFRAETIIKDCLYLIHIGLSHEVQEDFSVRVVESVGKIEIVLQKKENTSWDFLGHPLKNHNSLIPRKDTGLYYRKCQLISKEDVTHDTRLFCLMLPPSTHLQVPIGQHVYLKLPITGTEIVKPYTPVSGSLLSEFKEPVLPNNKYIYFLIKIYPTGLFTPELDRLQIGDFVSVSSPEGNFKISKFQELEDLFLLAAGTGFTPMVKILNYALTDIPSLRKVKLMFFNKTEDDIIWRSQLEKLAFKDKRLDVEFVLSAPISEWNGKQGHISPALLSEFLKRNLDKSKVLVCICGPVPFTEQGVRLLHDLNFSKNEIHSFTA
# CYFIP2 (human) = system: CYFIP2 (human)
# CYP1A1 = biological target: T2, CYP1A1 (UniProt P04798)
# T2 sequence: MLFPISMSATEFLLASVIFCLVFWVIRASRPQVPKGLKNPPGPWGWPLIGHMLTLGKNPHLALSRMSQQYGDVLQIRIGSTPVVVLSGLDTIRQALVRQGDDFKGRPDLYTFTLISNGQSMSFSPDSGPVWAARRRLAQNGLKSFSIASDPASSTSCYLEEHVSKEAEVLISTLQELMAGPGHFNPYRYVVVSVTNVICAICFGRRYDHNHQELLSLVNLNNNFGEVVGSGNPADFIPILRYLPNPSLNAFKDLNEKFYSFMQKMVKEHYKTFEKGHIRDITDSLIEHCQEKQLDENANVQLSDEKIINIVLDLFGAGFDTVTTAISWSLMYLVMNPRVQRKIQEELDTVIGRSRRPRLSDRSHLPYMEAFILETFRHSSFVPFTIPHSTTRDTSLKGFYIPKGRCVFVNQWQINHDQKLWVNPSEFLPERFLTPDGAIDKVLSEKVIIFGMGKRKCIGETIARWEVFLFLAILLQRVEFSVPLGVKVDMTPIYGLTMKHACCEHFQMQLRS
# CYP20A1 (human) = system: CYP20A1 (human)
# CYP26A1 (human) = system: CYP26A1 (human)
# CYP26B1 (human) = system: CYP26B1 (human)
# CYP27A1 (human) = system: CYP27A1 (human)
# CYP4F11 (human) = system: CYP4F11 (human)
# CYTL1 (human) = system: CYTL1 (human)
sequence,measurement,setting,value
GGGAGGCTGAGGCAGG [G4-1 biotinylated (PQS2)],binding signal,[1],-0.326 z-score
same,binding signal,CTDSP1 (human),-0.317 z-score
same,binding signal,CTNNA3 (human),-0.326 z-score
same,binding signal,CTNNB1 (human),-0.36 z-score
same,binding signal,CTSC (human),-0.342 z-score
same,binding signal,CTSE (human),-0.323 z-score
same,binding signal,CTXN1 (human),-0.319 z-score
same,binding signal,CXCL3 (human),-0.276 z-score
same,binding signal,CXCL5,-0.332 z-score
same,binding signal,CYB5B (human),-0.346 z-score
same,binding signal,CYB5R3 (human),-0.331 z-score
same,binding signal,CYB5R4,-0.324 z-score
same,binding signal,CYFIP2 (human),-0.363 z-score
same,binding signal,CYP1A1,-0.313 z-score
same,binding signal,CYP20A1 (human),-0.335 z-score and -0.332 z-score
same,binding signal,CYP26A1 (human),-0.276 z-score
same,binding signal,CYP26B1 (human),-0.301 z-score
same,binding signal,CYP27A1 (human),-0.308 z-score
same,binding signal,CYP4F11 (human),-0.317 z-score
same,binding signal,CYTL1 (human),-0.334 z-score
